The list shows a part of the results.

Sequences of proteins named here, by UniProt entry; tags and fusion partners are left off.
UniProt Q0JBA9, entry or part of it: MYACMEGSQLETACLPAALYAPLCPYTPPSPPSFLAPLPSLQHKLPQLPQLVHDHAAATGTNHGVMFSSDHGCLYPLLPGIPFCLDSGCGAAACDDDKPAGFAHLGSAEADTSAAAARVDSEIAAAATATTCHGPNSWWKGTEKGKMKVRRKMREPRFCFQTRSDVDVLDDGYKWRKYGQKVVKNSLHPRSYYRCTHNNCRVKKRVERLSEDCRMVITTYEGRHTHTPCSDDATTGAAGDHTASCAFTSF

This assay concerns the target OsWRKY34 (Oryza sativa, UniProt Q0JBA9 1-250). Briefly: protein-binding microarray (RPBM); PBS, 2% BSA, 51.3 ng/ul salmon testes DNA, 50 uM zinc acetate, 200 nM TF, 25 C, 1 h; high values mean tight binding. As to conditions: protein: recombinant; tags: N-terminal polyhistidine and DsRed monomer fusion (pET32a); label: CyDye5-dUTP incorporated in the synthesized complementary strand; 3' TTTTT single-stranded linker to array surface; dsDNA, one strand shown. In short, it runs like this: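 Polyhistidine-tagged DsRed fusions of transcription factors, joined at the N-terminus, were expressed in E. coli BL21-CodonPlus and isolated on Ni–NTA. They were incubated at 200 nM for 1 h at 25 °C on a custom Agilent array, double-stranded and BSA-blocked, in PBS with 2% BSA, salmon testes DNA and 50 µM zinc acetate. The binding signal is per-feature fluorescence intensity (arbitrary units) read on an Axon 4000B scanner after washing.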
For the sequence “GAACGGTCAAACATGTTAAAAAAAGTCAACGGCGTCAAATCGGAGTCACCTAGTGCAG”, the binding signal was 14700 fluorescence intensity (a.u.).

Consider “GGACTGCTGCAAGATTTGTGTATAATTACTTTTATCTTTCCGGAGTCACCTAGTGCAG”, for which the binding signal was 9860 fluorescence intensity (a.u.).

Regarding “AGTTGAGGGATCCGTTGTATCTGGTTTTGCGGTTGAAGGACGGAGTCACCTAGTGCAG”, the binding signal is 8570 fluorescence intensity (a.u.).

Turning to “TTTCACAAATCCTTTCTATGCAGGTATATAAACATAAATTCGGAGTCACCTAGTGCAG”, the binding signal is 8200 fluorescence intensity (a.u.).

In the case of “ACTTCTAATGGATTCCAAGTTGGTTGACCCCGAGTTTTTCCGGAGTCACCTAGTGCAG”, the binding signal is 10800 fluorescence intensity (a.u.).

Regarding “AGCTTTCTAAATATGTTTGTTCTGTGGGCTCTGTTTGATCCGGAGTCACCTAGTGCAG”, the binding signal is 8190 fluorescence intensity (a.u.).

As for “TCTGAAGATGCTTACTTTTTAATACTACTCATTTAGTTTCCGGAGTCACCTAGTGCAG”, the binding signal was 10400 fluorescence intensity (a.u.).

For “CGTCGTTCCTCGGGTCGCCCCAGTCTCTGATGCTGCCGGCCGGAGTCACCTAGTGCAG”, the binding signal is 10400 fluorescence intensity (a.u.).

In the case of “AATGCGTGAACTTTTCTTGTGATTTACATAGCGGCAAAATCGGAGTCACCTAGTGCAG”, the binding signal was 9900 fluorescence intensity (a.u.).

In the case of “CTGACGCGTGCACACGCACACACACATTGCCGTTTTTCACCGGAGTCACCTAGTGCAG”, the binding signal was 8980 fluorescence intensity (a.u.).

Take “TCTACTCGCCGCCAGCCGCTTCGATAAGACCGGACTCCACCGGAGTCACCTAGTGCAG”: the binding signal was 10600 fluorescence intensity (a.u.).

As to “ACAATCCTCGAGCGTACGACCCCACCTGCCCACCTAGAATCGGAGTCACCTAGTGCAG”, the binding signal was 8150 fluorescence intensity (a.u.).

Consider “CGTAGTAATGTCTGAATTCACCGCCTTAATCCTGTCACGACGGAGTCACCTAGTGCAG”, for which the binding signal is 8450 fluorescence intensity (a.u.).

For “AGGGGTTGGTAATTGGCAGGGAATTCCTCCTTTACTTCGCCGGAGTCACCTAGTGCAG”, the binding signal is 8450 fluorescence intensity (a.u.).

As to “CACGGCCCATCTAAACAAGCCTTTCCACAAGTCAGCGACGCGGAGTCACCTAGTGCAG”, the binding signal is 8250 fluorescence intensity (a.u.).

For the sequence “CTAGCTTCTTGGACAGTCTGCTGAAGACTAGCCTCACTACCGGAGTCACCTAGTGCAG”, the binding signal is 10200 fluorescence intensity (a.u.).

As for “ATCTATTCATGTGTTTCAATATTGGCTTGGTCATTCCTAACGGAGTCACCTAGTGCAG”, the binding signal is 11400 fluorescence intensity (a.u.).

Take “TATGACAGTAGCTCGATCAAAGGTGTTCGTTTTTTCTTTCCGGAGTCACCTAGTGCAG”: the binding signal was 9100 fluorescence intensity (a.u.).

With “CTTTCTTTGACTGTTGCCTTTTATTTTGTGCAGGTTGTATCGGAGTCACCTAGTGCAG”, the binding signal was 11300 fluorescence intensity (a.u.).

“CTCTCCCTTATATTTTTGTTTCACTGCACCATCTTTTGGGCGGAGTCACCTAGTGCAG”: the binding signal was 9370 fluorescence intensity (a.u.).

On to “GCCGTCGCCGTCGCCGTCCTCCTCGTTGTCGTTGTCGTCGCGGAGTCACCTAGTGCAG”, for which the binding signal was 9000 fluorescence intensity (a.u.).

As to “CGTGCCCACGTGGAAAACAACGTTGACCCCACCCGTTAGCCGGAGTCACCTAGTGCAG”, the binding signal is 10300 fluorescence intensity (a.u.).

With “GGAGGTGTGAAGTTGTTTAAATAAAAATGAAGGGGTCGAGCGGAGTCACCTAGTGCAG”, the binding signal is 8310 fluorescence intensity (a.u.).

Regarding “GATTTCATCCTCATGGATTCTTCTGAAGTTTCTGGTGCTACGGAGTCACCTAGTGCAG”, the binding signal is 8120 fluorescence intensity (a.u.).

Consider “CTCCATCACCACAACAGAAGTTATTACTTTACCTTTCACACGGAGTCACCTAGTGCAG”, for which the binding signal is 8730 fluorescence intensity (a.u.).

In the case of “CAAGCAGTAGTTCTTCCCAATATCCACCGCTCGCGACCTCCGGAGTCACCTAGTGCAG”, the binding signal is 9520 fluorescence intensity (a.u.).

“ACTAGCACTCACCAGTCAATCTTCAGTCACGGCCCTATTGCGGAGTCACCTAGTGCAG”: the binding signal was 8650 fluorescence intensity (a.u.).

Consider “CCAAGTATGGAACCGTTGTTACTTGTCGTTCGCCGGCATCCGGAGTCACCTAGTGCAG”, for which the binding signal was 9040 fluorescence intensity (a.u.).

As to “TGCGCTGGTAGTGATGATAGTGTTGATGGGTAGGTTTTTTCGGAGTCACCTAGTGCAG”, the binding signal is 8850 fluorescence intensity (a.u.).

Turning to “AATGATTATAGTGCTGTTGACGGCAATCGGTTGTGAGAATCGGAGTCACCTAGTGCAG”, the binding signal is 8600 fluorescence intensity (a.u.).

Take “CAACTTCCAAGTTCCGATAGCTGGGTTCGTATCTTCATTGCGGAGTCACCTAGTGCAG”: the binding signal was 8130 fluorescence intensity (a.u.).

With “TCTTCAAAAATCAACTGTAACTAACTTCCTCATTTTTTTCCGGAGTCACCTAGTGCAG”, the binding signal is 9480 fluorescence intensity (a.u.).

As for “CCGTCCTGCTGGCCTCACATCCGACGGCTCATGTCGCATCCGGAGTCACCTAGTGCAG”, the binding signal is 8910 fluorescence intensity (a.u.).

Turning to “TGGTCGTTTTGGTCATCTAGTTCGTGGTTTGTTCTTAAGACGGAGTCACCTAGTGCAG”, the binding signal is 9090 fluorescence intensity (a.u.).

“ATATGAGTTTTACGGGATTCTGATGCTTTCTGTTACTTTTCGGAGTCACCTAGTGCAG”: the binding signal was 8470 fluorescence intensity (a.u.).

Turning to “ACGCAAACTTCCTCTCTCTCTCTCTTCTCGGCGCGAATCCCGGAGTCACCTAGTGCAG”, the binding signal is 9160 fluorescence intensity (a.u.).

As for “TCTTCACGCCGCCTCCGCTCCTGAGGCCCAGCCGCCGCGCCGGAGTCACCTAGTGCAG”, the binding signal is 8100 fluorescence intensity (a.u.).

With “CCACATCATCTGCTTCTGTGCGGCCGCTTCTATCGGCCCTCGGAGTCACCTAGTGCAG”, the binding signal is 9620 fluorescence intensity (a.u.).

On to “GAATCCTAGACCCACGCCCGGCGTCCCGCGTCGCGCGCCGCGGAGTCACCTAGTGCAG”, for which the binding signal was 8160 fluorescence intensity (a.u.).

For the sequence “GCATCATAGCTCGGTTTTCATATCTTTCTTTACAATCACTCGGAGTCACCTAGTGCAG”, the binding signal was 8830 fluorescence intensity (a.u.).

For the sequence “TGGTGGAGAAATGGTCTACTGCGCGCATGATTTTTAGCTTCGGAGTCACCTAGTGCAG”, the binding signal is 8110 fluorescence intensity (a.u.).

“GTAGGGAGGGAGGGGTGAGGCGGACACACGAAAAATAGGTCGGAGTCACCTAGTGCAG”: the binding signal was 13400 fluorescence intensity (a.u.).

Source of the values: article PMC7819943, “Rice protein-binding microarrays: a tool to detect cis-acting elements near promoter regions in rice”.
